Results reported in patent publication US12410157B2, “Compound useful as toll-like receptor 7 activation inhibitor” (TOYAMA PREFECTURAL UNIVERSITY, priority 2020, dated 2025).
Where a name gives a salt, the structure may show the parent alone. For at least one compound, name, drawing or mass did not settle the structure. Some results were stated once for a whole list of compounds, not compound by compound.

Columns and labels:
TLR7 = biological target: T1, TLR7 (Mus musculus, UniProt P58681); test: TLR7 inhibition (R848-induced serum IFN-α) by intraperitoneal administration in mice; type: in vivo, mice (C57BL/6N); set-up: from tissue; host or cells: whole animal, C57BL/6N mice (serum IFN-α after R848)
T1 sequence (P58681 27-1050): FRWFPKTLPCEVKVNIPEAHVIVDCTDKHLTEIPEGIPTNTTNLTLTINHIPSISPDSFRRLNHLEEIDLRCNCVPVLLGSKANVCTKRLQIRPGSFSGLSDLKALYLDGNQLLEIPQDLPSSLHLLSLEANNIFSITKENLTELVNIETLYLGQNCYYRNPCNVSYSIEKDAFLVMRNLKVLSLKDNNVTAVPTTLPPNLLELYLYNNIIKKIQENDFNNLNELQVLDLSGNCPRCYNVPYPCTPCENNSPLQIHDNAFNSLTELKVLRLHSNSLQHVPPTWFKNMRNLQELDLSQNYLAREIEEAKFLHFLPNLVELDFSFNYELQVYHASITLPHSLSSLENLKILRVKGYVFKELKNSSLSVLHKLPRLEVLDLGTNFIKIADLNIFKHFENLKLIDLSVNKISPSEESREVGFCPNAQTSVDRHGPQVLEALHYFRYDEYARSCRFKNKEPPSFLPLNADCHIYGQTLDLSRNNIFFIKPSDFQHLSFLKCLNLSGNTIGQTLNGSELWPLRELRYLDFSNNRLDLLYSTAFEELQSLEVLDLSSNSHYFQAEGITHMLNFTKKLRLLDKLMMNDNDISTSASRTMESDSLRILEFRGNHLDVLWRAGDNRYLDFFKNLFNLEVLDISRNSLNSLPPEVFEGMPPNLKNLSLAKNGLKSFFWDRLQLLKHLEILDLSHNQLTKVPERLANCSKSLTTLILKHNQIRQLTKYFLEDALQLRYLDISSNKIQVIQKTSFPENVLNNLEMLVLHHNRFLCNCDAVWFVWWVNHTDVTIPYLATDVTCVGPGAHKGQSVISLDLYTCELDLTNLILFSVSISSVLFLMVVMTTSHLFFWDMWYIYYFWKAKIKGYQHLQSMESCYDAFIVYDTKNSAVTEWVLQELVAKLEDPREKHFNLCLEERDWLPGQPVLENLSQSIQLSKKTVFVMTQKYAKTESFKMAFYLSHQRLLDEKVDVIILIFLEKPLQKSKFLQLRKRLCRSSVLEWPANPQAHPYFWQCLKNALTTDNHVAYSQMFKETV
Description: Normal mice (C57BL/6N, 11 weeks old, female) were administered B2-24-4-5A·HCOOH (1, 5, 10, 100 and 1000 μg) or hydroxychloroquine sulfate (HCQ, 1000 μg) as a comparison drug intraperitoneally, followed by 5 μg of R848 after 30 minutes. The solvent was saline solution. 1 hour after R848 administration, blood was collected and the concentration of IFN-α in the serum was quantified using ELISA (used kit: Mouse IFN alpha Platinum ELISA (trade name), eBioscience). The plots in FIG. 7 represent the data for each individual, each bold line represents the mean value of each group data, and each error bar represents the standard error of each group data.
The same method as in Example 13 was used to study the TLR7 inhibition effect of intraperitoneal administration of B2-24-4·HCl, B2-24-4-5A or B2-24-4-5A·HCOOH in mice. B2-24-4·HCl, B2-24-4-5A and B2-24-4-5A·HCOOH were administered at a dose of 10 μg. The plots in FIG. 8 represent the data for each individual, each bold line represents the mean of each group data, and each error bar represents the standard error of each group data.

mouse TLR7 = biological target: T2, mouse TLR7 (Mus musculus, UniProt P58681); test: Inhibition of TLR7 activation in mouse TLR7-expressing NF-κB-GFP reporter Ba/F3 cells; type: cell-based; conditions: for TLR7 activation inhibitory activity, comparison in words: from IC50 of Table 3 / Table 5
T2 construct: expressed in transfected cells; host or cells: Ba/F3 cells (provided by Prof. Kensuke Miyake, University of Tokyo)
T2 sequence (P58681 27-1050): T1 sequence (P58681 27-1050)
Excerpt: Mouse TLR7-expressing reporter cells (Ba/F3 cells) were used to evaluate inhibition of TLR7 activation in each derivative and CB-7. These cells were provided by Professor Kensuke Miyake (Department of Infection Genetics, Institute of Medical Science, University of Tokyo). These cells have been transfected with a reporter gene that connects GFP gene downstream of the promoter region of NF-κB. Therefore, the expression of GFP is enhanced by the addition of a ligand for TLR7 expressed by the cells. The fluorescence intensity of GFP was attenuated by the addition of each derivative, and the inhibition of TLR7 activation by each derivative was evaluated as an indicator.
Loxoribine (Alexis Biochemicals) was used as the ligand for mouse TLR7. Gardiquimod (Invivogen) was used as the ligand for human TLR7.
Ba/F3 cells cultured in RPMI 1640 medium containing 10% (v/v) fetal calf serum (FCS), 50 U/mL penicillin, 50 μg/mL streptomycin, 2 mM L-glutamine, […] 2-mercaptoethanol, 1 ng/mL interleukin-3 were aliquoted into 96-well plates so that the number of cells per well was 1.0×10^5 cells/100 μL. 50 μL of each derivative or CB-7, prepared to final concentrations of 1, 5, 10, 25, 50, and 100 µM, was added to each well. 96-well plates were incubated at 37° C. for 30 minutes in the presence of 5% CO2. Next, 250 μg/mL Roxoribin was added to each well and incubated for 18 hours. At the end of incubation, cells were washed with PBS (FACS buffer) containing 2.5% (v/v) FCS and suspended in 200 μL of FACS buffer containing 25 μg/mL […] for each cell. GFP fluorescence intensities of the cells were analyzed by flow cytometry. Flow cytometry measurement was performed on a FACSCanto™ II (Becton Dickinson) and data were analyzed with FlowJo software (Tree Star). The MFI (%) upon stimulation with roxoribin in the presence of […] derivatives or CB-7 was calculated using the MFI upon stimulation with roxoribin alone as 100%, and then IC50 (chemical compound concentration that inhibits activity by 50%) was calculated by logistic regression analysis.
The evaluation of the TLR7 activation inhibition by B2-24-4-5A·HCOOH was performed by the method described in Example 2. CB-7 and B2-24-4·HCl were used as controls.

SMILES	Inhibitory effect on IFN-α induction (TLR7; 10 μg administered peritoneally)	Dose with drug efficacy (TLR7; 10 μg, assuming that the mice weighed 20 g) [mg/kg]	IFN-α production induced by R848 (TLR7; Example 12, 1-1000 μg intraperitoneally 30 minutes before 5 μg R848, serum 1 hour after R848)	TLR7 inhibitory effect in vivo greater than that of HCQ (TLR7; vs HCQ 1000 μg)	TLR7 activation inhibitory activity, comparison in words (mouse TLR7)	Order of strength of the effect on IFN-α production (TLR7; Example 13, 10 μg, FIG. 8)	IFN-α production induced by R848 (TLR7; Example 13, dose of 10 μg intraperitoneally)	TLR7 activation inhibitory activity, comparison in words (mouse TLR7; listed as B2-24-4·-HCl)	TLR7 activation inhibitory activity, comparison in words (mouse TLR7; listed as B2-24-4·HCl)	TLR7 activation inhibitory activity higher than CB-7 (mouse TLR7; relative to CB-7 (IC50 3.12 μM), Table 3)
C=C(C)[C@@H]1CC[C@]2(COC(=O)C2)C[C@H]1c1ccc(CN2CCNCC2)cc1 [B2-24-4-5A·HCOOH]	almost complete inhibitory effect	0.5	attenuated	more than 100 times	almost equivalent					
C=C[C@]1(CO)CC[C@@H](C(=C)C)[C@H](c2ccc(CN3CCNCC3)cc2)C1 [B2-24-4•HCl]						stronger with B2-24-4-5A·HCOOH, B2-24-4-5A and B2-24-4·HCl in that order	attenuated	higher TLR7 activation inhibitory activity than CB-7	almost equivalent	more than 2 fold
